Data taken from the supplement of paper PMC10849652.
This is one part of the list.

By UniProt entry, the sequences of proteins in these tests, tags left out. Where a name states a change or a piece, a line headed by the entry shows the natural chain unless it says otherwise.
UniProt P62136, whole entry, looked up: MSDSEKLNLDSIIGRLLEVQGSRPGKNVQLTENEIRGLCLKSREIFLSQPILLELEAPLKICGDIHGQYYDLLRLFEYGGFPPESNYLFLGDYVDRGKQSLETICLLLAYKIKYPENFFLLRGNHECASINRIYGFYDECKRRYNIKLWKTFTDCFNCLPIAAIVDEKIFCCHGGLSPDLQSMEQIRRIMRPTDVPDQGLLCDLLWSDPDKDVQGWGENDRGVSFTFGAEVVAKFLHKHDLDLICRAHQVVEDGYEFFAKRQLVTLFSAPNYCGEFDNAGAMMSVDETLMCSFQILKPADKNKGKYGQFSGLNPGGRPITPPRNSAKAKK
UniProt P54619: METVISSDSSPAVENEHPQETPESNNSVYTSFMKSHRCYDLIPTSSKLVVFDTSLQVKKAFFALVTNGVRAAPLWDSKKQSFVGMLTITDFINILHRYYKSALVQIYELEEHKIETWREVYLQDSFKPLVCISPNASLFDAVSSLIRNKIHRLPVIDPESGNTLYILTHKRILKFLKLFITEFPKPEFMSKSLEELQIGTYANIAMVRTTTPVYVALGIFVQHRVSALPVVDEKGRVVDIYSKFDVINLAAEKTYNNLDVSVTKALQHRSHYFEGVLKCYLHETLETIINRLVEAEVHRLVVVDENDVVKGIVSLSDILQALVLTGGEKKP
UniProt Q5H9R7: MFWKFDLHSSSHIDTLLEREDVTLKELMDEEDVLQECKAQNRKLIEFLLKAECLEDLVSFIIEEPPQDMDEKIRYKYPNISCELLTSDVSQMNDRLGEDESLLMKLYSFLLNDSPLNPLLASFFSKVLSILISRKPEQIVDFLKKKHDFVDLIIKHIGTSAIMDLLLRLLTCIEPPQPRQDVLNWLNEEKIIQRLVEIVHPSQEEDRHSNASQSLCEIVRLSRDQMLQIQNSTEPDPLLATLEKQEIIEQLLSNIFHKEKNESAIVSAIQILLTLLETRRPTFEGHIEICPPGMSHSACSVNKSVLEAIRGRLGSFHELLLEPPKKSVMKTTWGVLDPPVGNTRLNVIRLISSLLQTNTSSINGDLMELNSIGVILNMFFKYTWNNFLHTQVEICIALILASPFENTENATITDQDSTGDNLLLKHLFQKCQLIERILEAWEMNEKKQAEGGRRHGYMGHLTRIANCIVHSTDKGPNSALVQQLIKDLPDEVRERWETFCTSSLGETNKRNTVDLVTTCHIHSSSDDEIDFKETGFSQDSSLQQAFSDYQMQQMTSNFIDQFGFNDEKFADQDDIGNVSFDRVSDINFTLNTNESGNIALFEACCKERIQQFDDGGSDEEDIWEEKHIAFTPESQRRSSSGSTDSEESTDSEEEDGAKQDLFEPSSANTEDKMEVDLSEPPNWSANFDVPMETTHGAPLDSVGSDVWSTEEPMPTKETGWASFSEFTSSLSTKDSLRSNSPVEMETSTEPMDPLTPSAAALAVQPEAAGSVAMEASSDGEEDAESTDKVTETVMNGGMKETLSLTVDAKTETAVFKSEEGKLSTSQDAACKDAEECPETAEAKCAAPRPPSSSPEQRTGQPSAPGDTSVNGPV
UniProt Q13362, whole entry, looked up: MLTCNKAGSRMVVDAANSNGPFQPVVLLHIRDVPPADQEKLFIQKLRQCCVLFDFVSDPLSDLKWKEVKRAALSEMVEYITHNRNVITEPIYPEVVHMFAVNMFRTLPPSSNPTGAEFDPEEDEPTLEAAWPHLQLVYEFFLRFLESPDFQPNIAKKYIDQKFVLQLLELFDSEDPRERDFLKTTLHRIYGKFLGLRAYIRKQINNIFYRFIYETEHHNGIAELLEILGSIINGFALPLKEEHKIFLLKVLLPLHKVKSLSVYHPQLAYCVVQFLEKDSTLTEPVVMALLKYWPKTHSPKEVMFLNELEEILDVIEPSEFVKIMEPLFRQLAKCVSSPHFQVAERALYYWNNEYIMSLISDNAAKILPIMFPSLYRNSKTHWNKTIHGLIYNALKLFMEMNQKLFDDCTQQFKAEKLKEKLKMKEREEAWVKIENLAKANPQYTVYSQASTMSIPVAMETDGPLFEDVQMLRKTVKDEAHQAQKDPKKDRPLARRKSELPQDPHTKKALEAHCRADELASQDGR
UniProt Q8TAP8: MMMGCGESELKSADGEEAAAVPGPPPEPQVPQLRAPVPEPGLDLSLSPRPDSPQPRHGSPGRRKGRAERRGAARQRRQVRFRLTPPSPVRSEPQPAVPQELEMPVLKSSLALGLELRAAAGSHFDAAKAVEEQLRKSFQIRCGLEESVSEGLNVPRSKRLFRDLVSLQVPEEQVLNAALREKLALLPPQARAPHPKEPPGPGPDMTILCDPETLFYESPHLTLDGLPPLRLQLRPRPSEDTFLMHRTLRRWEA
UniProt Q13523: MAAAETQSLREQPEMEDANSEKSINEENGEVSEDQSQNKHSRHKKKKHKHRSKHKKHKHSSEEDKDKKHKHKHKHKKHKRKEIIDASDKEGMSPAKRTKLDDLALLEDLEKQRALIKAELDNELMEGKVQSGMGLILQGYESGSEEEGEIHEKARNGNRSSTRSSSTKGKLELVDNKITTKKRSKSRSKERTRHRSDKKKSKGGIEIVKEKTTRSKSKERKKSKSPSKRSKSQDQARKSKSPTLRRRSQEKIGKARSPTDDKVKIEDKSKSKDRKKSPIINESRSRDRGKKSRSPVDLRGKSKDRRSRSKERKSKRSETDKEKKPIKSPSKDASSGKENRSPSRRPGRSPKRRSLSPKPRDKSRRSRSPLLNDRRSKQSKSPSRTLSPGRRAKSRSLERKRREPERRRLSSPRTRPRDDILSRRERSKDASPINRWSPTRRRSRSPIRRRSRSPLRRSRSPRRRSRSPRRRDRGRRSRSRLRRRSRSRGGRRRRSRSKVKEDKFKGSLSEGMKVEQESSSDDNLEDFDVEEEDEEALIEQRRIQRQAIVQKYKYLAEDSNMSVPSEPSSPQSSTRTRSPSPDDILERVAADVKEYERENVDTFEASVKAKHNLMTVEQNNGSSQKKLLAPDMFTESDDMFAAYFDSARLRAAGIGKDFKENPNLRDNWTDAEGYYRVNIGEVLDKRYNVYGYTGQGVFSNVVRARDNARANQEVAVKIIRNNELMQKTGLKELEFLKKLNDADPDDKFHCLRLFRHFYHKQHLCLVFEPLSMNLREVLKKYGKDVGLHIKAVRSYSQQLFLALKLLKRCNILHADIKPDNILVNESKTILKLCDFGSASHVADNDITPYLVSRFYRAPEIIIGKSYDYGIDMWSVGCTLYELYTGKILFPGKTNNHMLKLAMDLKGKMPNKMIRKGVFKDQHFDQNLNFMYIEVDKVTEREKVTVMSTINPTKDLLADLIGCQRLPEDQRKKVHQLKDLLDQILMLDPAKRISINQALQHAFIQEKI
UniProt P31321, whole entry, looked up: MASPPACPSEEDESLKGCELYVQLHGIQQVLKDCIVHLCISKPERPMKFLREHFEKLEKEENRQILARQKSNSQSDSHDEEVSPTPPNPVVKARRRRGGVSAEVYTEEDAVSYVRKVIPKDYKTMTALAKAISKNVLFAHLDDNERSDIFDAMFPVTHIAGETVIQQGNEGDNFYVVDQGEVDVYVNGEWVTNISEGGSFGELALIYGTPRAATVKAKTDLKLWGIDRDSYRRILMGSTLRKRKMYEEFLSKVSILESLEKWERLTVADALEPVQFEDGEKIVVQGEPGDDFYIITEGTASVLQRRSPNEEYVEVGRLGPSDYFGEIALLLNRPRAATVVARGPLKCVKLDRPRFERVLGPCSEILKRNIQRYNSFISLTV
UniProt O14974: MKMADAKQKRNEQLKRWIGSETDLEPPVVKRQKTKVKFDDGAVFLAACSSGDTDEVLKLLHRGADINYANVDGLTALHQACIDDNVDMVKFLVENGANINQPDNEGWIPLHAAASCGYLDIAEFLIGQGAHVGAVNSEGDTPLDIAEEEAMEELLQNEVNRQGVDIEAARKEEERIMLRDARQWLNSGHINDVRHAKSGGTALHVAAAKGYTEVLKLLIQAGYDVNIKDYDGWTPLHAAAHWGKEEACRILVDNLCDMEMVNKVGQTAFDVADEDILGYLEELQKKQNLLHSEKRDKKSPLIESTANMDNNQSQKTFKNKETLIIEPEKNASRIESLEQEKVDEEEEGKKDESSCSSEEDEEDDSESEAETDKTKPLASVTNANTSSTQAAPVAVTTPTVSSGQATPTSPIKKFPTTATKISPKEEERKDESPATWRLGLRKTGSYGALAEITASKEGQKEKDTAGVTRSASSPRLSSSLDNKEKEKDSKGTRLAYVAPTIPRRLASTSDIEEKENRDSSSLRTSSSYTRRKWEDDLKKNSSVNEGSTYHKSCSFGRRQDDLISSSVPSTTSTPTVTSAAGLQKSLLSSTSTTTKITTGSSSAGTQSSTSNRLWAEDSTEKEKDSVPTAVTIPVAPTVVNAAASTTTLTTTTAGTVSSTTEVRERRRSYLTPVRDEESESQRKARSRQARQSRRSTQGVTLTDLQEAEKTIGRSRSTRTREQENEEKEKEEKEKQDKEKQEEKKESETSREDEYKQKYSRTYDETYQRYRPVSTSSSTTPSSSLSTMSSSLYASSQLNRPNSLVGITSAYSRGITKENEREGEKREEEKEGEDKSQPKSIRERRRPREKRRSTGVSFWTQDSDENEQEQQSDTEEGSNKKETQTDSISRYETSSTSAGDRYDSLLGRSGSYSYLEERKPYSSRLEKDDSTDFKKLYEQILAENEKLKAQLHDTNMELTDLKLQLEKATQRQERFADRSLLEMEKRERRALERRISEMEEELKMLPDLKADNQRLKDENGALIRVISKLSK
UniProt O75569: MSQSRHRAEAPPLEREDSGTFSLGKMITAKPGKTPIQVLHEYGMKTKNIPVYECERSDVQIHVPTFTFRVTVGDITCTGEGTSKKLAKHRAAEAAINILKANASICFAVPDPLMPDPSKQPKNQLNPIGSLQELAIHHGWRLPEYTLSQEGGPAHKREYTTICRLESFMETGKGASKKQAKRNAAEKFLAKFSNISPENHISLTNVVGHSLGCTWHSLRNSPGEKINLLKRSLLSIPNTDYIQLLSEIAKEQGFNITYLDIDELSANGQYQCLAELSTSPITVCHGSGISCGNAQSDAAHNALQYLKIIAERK
UniProt Q9UPN7: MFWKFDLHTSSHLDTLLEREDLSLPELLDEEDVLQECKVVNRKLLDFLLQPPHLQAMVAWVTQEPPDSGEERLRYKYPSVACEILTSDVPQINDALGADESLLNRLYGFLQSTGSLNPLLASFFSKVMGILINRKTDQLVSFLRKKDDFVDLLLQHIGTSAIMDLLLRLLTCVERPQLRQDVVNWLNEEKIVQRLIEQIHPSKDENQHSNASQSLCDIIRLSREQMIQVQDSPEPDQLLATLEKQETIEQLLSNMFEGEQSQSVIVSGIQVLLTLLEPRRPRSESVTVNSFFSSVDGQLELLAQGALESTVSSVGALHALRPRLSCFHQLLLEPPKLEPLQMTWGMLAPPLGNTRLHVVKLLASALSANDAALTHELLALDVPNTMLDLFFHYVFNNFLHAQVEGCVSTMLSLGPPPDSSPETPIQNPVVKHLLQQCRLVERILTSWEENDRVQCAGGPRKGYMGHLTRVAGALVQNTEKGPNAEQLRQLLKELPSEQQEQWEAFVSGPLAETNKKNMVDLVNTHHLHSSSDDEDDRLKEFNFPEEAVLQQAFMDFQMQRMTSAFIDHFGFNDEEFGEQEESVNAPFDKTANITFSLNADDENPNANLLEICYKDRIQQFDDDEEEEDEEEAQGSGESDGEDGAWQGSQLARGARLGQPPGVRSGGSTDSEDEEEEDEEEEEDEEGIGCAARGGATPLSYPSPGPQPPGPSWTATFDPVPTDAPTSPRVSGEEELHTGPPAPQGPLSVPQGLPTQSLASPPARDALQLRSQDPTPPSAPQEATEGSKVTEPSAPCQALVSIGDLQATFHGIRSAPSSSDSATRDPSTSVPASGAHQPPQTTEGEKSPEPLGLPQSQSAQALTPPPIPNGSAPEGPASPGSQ

compound: Cc1ccc(C(=O)N(CCCN)[C@@H](c2nc3cc(Cl)ccc3c(=O)n2Cc2ccccc2)C(C)C)cc1 [ispinesib]; experiment: log2 fold change, soluble protein after heating vs DMSO (PISA); higher = thermal stabilisation; K562 cells, 10 uM, 30 min; active = over 0.2 and 3.5 SD of the protein, either way, in both replicates (recomputed)
In short: (§1)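 K562 cells at 2×10^6 cells/mL were exposed to 10 μM compound for 30 min, then aliquots were heated for 3 min across 48°C-58°C, pooled, and extracted in PBS containing 0.5% NP-40 at 4°C. The supernatant after 21,000xg for 90 min was taken as soluble protein and measured by TMTpro 16plex LC-MS/MS with channel sums equalised. Thermal stability is reported relative to control samples, with values from duplicates. Fold changes are given on a log2 scale.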

| Target | log2 fold change |
| --- | --- |
| PPP1CA (UniProt P62136) | inactive: 0.083 |
| PPP1R14B (UniProt Q96C90) | inactive: 0.016 |
| PRKAG1 isoform 3 (UniProt P54619) | inactive: -0.018 |
| PPP6R3 isoform 5 (UniProt Q5H9R7) | inactive: 0.025 |
| PRKAR2B (UniProt P31323) | inactive: -0.001 |
| PRPSAP1 isoform 2 (UniProt Q14558) | inactive: 0.051 |
| PRKCQ (UniProt Q04759) | inactive: -0.106 |
| PPM1G (UniProt O15355) | inactive: -0.055 |
| PRKCB isoform 2 (UniProt P05771) | inactive: -0.017 |
| PRMT8 (UniProt Q9NR22) | inactive: 0.13 |
| PPP2R5C isoform 4 (UniProt Q13362) | inactive: -0.036 |
| PRKCSH (UniProt K7ELL7) | inactive: -0.011 |
| PRKAB2 (UniProt O43741) | inactive: 0.143 |
| PRKCA (UniProt P17252) | inactive: -0.112 |
| PRKDC (UniProt P78527) | inactive: 0.059 |
| PPP2R5A (UniProt Q15172) | inactive: -0.056 |
| PPP1R14A (UniProt Q96A00) | inactive: 0.319 |
| PRKACA (UniProt P17612) | inactive: 0.053 |
| PRKAA1 isoform 2 (UniProt Q13131) | inactive: -0.003 |
| PRMT7 (UniProt Q9NVM4) | inactive: 0.065 |
| PPP1R35 (UniProt Q8TAP8) | inactive: -0.058 |
| PRPF4B (UniProt Q13523) | inactive: 0.082 |
| PRKAR2A (UniProt P13861) | inactive: -0.056 |
| PRKAR1B (UniProt P31321) | inactive: -0.072 |
| PRKCD (UniProt Q05655) | inactive: -0.007 |
| PPP1R12A (UniProt O14974) | inactive: -0.1 |
| PRKRA (UniProt O75569) | inactive: -0.4 |
| PPP6R1 (UniProt Q9UPN7) | inactive: -0.002 |

compound: Cc1ccc(NC(=O)c2ccc(CN3CC[C@H](N(C)C)C3)c(C(F)(F)F)c2)cc1Nc1nccc(-c2cncnc2)n1 [bafetinib]; experiment: as above
In short: as §1

| Target | log2 fold change |
| --- | --- |
| PPP1CA (UniProt P62136) | inactive: -0.053 |
| PPP1R14B (UniProt Q96C90) | inactive: 0.04 |
| PRKAG1 isoform 3 (UniProt P54619) | inactive: -0.098 |
| PPP6R3 isoform 5 (UniProt Q5H9R7) | inactive: -0.062 |
| PRKAR2B (UniProt P31323) | inactive: -0.022 |
| PRPSAP1 isoform 2 (UniProt Q14558) | inactive: -0.004 |
| PRKCQ (UniProt Q04759) | inactive: -0.027 |
| PPM1G (UniProt O15355) | inactive: 0.001 |
| PRKCB isoform 2 (UniProt P05771) | inactive: -0.037 |
| PRMT8 (UniProt Q9NR22) | inactive: 0.002 |
| PPP2R5C isoform 4 (UniProt Q13362) | inactive: -0.032 |
| PRKCSH (UniProt K7ELL7) | inactive: -0.091 |
| PRKAB2 (UniProt O43741) | inactive: 0.027 |
| PRPF18 (UniProt Q99633) | inactive: -0.082 |
| PRKCA (UniProt P17252) | inactive: -0.043 |
| PRKDC (UniProt P78527) | inactive: -0.02 |

| Target | log2 fold change |
| --- | --- |
| PPP2R5A (UniProt Q15172) | inactive: -0.008 |
| PPP1R14A (UniProt Q96A00) | inactive: -0.058 |
| PRKACA (UniProt P17612) | inactive: -0.044 |
| PRKAA1 isoform 2 (UniProt Q13131) | inactive: -0.096 |
| PRMT7 (UniProt Q9NVM4) | inactive: -0.114 |
| PPP1R35 (UniProt Q8TAP8) | inactive: -0.039 |
| PRPF4B (UniProt Q13523) | inactive: 0.188 |
| PRKAR2A (UniProt P13861) | inactive: 0.029 |
| PRSS2 (UniProt P07478) | inactive: -0.001 |
| PRKAR1B (UniProt P31321) | inactive: 0.132 |
| PROCR (UniProt Q9UNN8) | inactive: 0.097 |
| PRKCD (UniProt Q05655) | inactive: -0.028 |
| PPP1R12A (UniProt O14974) | inactive: -0.041 |
| PRKRA (UniProt O75569) | inactive: -0.056 |
| PPP6R1 (UniProt Q9UPN7) | inactive: -0.024 |
